No constants are given. Whether binding was seen depends on the method and setting. A result given as binding can be weak or reduced; the word gives no strength.

The target in the assay is T1, V/A-ATPase E subunit (Thermus thermophilus) (UniProt P74901).
T1 sequence: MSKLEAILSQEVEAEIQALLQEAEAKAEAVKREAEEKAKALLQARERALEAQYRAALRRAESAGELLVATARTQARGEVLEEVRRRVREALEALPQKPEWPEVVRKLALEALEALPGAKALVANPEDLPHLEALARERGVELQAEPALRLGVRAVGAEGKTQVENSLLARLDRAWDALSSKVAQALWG
The experiment in a line: cryo-EM structure.

Take “V/A-ATPase G subunit (Thermus thermophilus)”: the binding entry is listed as “binds”.

The values are drawn from doi:10.1101/2022.10.04.510906 (bioRxiv, 2022).
